PubChem BioAssay AID1053208 – Peter MacCallum Cancer Centre, 2014
The deposit covers about 17,000 reagents; shown is a part drawn at random. In the full data, 788 (4.7%) were called active. 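Calls rest on z-score classes alone; an extra cut-off of viability at most 70% of control was not applied to them.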 Unmarked entries are inactive. Further read-outs or replicates are left out here.

- Screen: 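Genes whose silencing cuts survival of bone tumour cells only with doxorubicin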 (primary screen)
- System: mouse osteosarcoma cells, early-passage culture from an engineered mouse model of fibroblastic bone tumour
- Knock-down reagent: siRNA pool against mouse genes, 40 nM
- Time to read-out: about 120 h (48 h before drug, then 72 h with drug)
- Conditions: doxorubicin 100 nM for 72 h, roughly 30-40% inhibitory dose
- Read-out: 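Luminescent ATP signal taken as viability with or without 100 nM doxorubicin for 72 h; mean of two wells set against non-targeting siRNA and turned into robust z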
- Direction: viability z-score with doxorubicin: higher = more viable cells under doxorubicin; viability z-score without drug: higher = more viable cells with knock-down alone
- Rule for the call: 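a pool counts as active when its viability z-score with doxorubicin is -2 or below and its z-score without drug lies between -2 and 2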

| Target gene | combined z-score class | viability z-score with doxorubicin | viability z-score without drug |
| --- | --- | --- | --- |
| Onecut1 (one cut domain, family member 1) | no change with or without drug | 1.35 | 0.51 |
| Atg16l1 (autophagy related 16 like 1) | no change with or without drug | -0.22 | -0.17 |
| Gpha2 (glycoprotein hormone alpha 2) | no change with or without drug | 1.12 | 0.17 |
| Tipin (timeless interacting protein) | low cell count with doxorubicin only (active) | -4.27 | -0.17 |
| Trip4 (thyroid hormone receptor interactor 4) | no change with or without drug | -0.67 | -0.51 |
| Stap2 (signal transducing adaptor family member 2) | low cell count with doxorubicin only (active) | -4.05 | 0.34 |
| Vmn1r232 (vomeronasal 1 receptor 232) | low cell count with doxorubicin only (active) | -2.25 | 0.17 |
| Phka2 (phosphorylase kinase alpha 2) | no change with or without drug | -0.11 | -1.52 |
| Kcnj2 (potassium inwardly-rectifying channel, subfamily J, member 2) | no change with or without drug | 0 | -0.17 |
| Vmn1r199 (vomeronasal 1 receptor 199) | no change with or without drug | -0.9 | -0.84 |
| Zfp998 (zinc finger protein 998) | high cell count with doxorubicin only | 2.02 | 1.35 |
| Or13c7b (olfactory receptor family 13 subfamily C member 7B) | no change with or without drug | -0.45 | -0.34 |
| Sav1 (salvador family WW domain containing 1) | no change with or without drug | 1.12 | -0.51 |
| B3gnt3 | no change with or without drug | -0.9 | 0.34 |
| Miga2 (mitoguardin 2) | no change with or without drug | 0 | 1.85 |
| Akap11 (A kinase anchor protein 11) | no change with or without drug | 0.34 | -1.01 |
| Vmn1r83 (vomeronasal 1 receptor 83) | high cell count with doxorubicin only | 2.81 | 1.18 |
| Gfod2 (glucose-fructose oxidoreductase domain containing 2) | no change with or without drug | -0.11 | 0.17 |
| Eif3a (eukaryotic translation initiation factor 3, subunit A) | low cell count with and without drug | -2.47 | -2.02 |
| Zfp9 (zinc finger protein 9) | no change with or without drug | -0.22 | 1.01 |
| Ccdc126 (coiled-coil domain containing 126) | no change with or without drug | 0.9 | 0.84 |
| Mon1b (MON1 homolog B, secretory traffciking associated) | no change with or without drug | -0.67 | 0.17 |
| Slpi (secretory leukocyte peptidase inhibitor) | no change with or without drug | 1.57 | 1.18 |
| Or2d36 (olfactory receptor family 2 subfamily D member 36) | no change with or without drug | -0.45 | 0.51 |
| Rab4b (RAB4B, member RAS oncogene family) | high cell count with and without drug | 2.36 | 2.19 |
| Upb1 (ureidopropionase, beta) | no change with or without drug | -0.22 | 1.01 |
| Abl2 (ABL proto-oncogene 2, non-receptor tyrosine kinase) | no change with or without drug | -0.9 | 0.34 |
| A630052C17Rik (RIKEN cDNA A630052C17 gene) | no change with or without drug | 0.56 | 1.35 |
| Foxo3 (forkhead box O3) | no change with or without drug | 1.12 | -0.17 |
| Nthl1 (nth (endonuclease III)-like 1 (E.coli)) | no change with or without drug | -0.79 | -1.52 |
| Cldn1 (claudin 1) | no change with or without drug | -0.22 | -0.51 |
| Mcm8 | no change with or without drug | -1.12 | -1.85 |
| Asb16 (ankyrin repeat and SOCS box-containing 16) | no change with or without drug | -1.12 | -1.18 |
| Mybpc1 (myosin binding protein C, slow-type) | no change with or without drug | -0.11 | -0.17 |
| Btg1 (BTG anti-proliferation factor 1) | no change with or without drug | -1.12 | -0.51 |
| Sp3 (trans-acting transcription factor 3) | no change with or without drug | 0.9 | 0.34 |
| Cdc42bpb (CDC42 binding protein kinase beta) | no change with or without drug | 0.9 | 0.67 |
| Slc37a4 | no change with or without drug | 0.45 | 0.17 |
| Ttpa (tocopherol (alpha) transfer protein) | high cell count without drug only | 0 | 2.19 |
| Nmu (neuromedin U) | no change with or without drug | 1.01 | -0.51 |
| Ces4a (carboxylesterase 4A) | no change with or without drug | 1.35 | 1.01 |
| Ndc1 (NDC1 transmembrane nucleoporin) | no change with or without drug | 0.22 | -0.84 |
| Exoc3 (exocyst complex component 3) | no change with or without drug | -0.79 | -1.85 |
| Prss44 (serine protease 44) | no change with or without drug | -1.8 | 1.18 |
| Sftpb (surfactant associated protein B) | no change with or without drug | 1.01 | -0.34 |
| Ammecr1 (AMMECR nuclear protein 1) | no change with or without drug | 0 | -0.17 |
| Tnfsf11 (tumor necrosis factor (ligand) superfamily, member 11) | no change with or without drug | -1.8 | -0.17 |
| Otulinl (OTU deubiquitinase with linear linkage specificity like) | no change with or without drug | 0.11 | -0.34 |
| A030005L19Rik (RIKEN cDNA A030005L19 gene) | no change with or without drug | 0.67 | 1.18 |
| Ly6i (lymphocyte antigen 6 family member I) | no change with or without drug | 1.46 | 1.01 |
